The results in this text go back to article PMC5023729.

Chains of the proteins cited; added tags and fusions are not shown.
UniProt P97855: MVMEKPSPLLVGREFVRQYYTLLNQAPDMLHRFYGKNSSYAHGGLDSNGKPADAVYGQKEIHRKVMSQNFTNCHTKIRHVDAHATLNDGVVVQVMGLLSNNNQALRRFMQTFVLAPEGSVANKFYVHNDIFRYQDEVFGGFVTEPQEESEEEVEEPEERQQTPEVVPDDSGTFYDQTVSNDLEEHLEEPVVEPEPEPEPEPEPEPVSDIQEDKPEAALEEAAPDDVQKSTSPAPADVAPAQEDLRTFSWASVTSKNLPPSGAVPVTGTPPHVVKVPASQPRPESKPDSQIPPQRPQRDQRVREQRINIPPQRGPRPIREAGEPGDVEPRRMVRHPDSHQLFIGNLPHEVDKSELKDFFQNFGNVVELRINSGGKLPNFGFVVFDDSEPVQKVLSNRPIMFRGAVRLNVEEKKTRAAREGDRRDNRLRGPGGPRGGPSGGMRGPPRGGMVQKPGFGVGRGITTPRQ
UniProt P00441: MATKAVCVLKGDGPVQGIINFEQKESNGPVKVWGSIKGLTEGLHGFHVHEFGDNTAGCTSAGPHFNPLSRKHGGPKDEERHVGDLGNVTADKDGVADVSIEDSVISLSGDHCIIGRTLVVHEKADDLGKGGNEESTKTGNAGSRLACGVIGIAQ

In the assay the target is G3BP1, endogenous in mouse spinal cord (mouse (endogenous in spinal cord)) (UniProt P97855). The assay is described as follows: co-IP; endogenous G3BP1 precipitated with rabbit anti-G3BP1 and Protein A resin from spinal cord extracts of 60-, 90- and 125-day-old WT or G93A SOD1 transgenic mice; 1x RIPA buffer, 4 °C, 2 h; western blot. Background: In western blotting, separated proteins are transferred to a membrane and probed.

Results are given in words; binding and its absence hold for the method and conditions named. Binding seen in cells or lysates may run through a third protein. Some results given as binding are weak or reduced against the parent protein; the word gives no strength.

Turning to “WT human SOD1, transgene in mouse spinal cord (from UniProt P00441 1-154)”, the binding entry is recorded as “binds weakly”.
